No constants are given. Whether binding was seen depends on the method and setting. Binding can be weak; no strength is given.
Biological target: T1, Pub1 RRM3 (S. cerevisiae) (UniProt P32588)
T1 sequence: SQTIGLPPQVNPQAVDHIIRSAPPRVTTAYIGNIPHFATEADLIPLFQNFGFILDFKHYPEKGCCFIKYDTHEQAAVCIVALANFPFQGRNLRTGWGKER
Test: NMR titration

The chains behind the UniProt entries cited, without tags or fusion partners. Where a name states a change or a piece, a line headed by the entry shows the natural chain unless it says otherwise.
UniProt P39935: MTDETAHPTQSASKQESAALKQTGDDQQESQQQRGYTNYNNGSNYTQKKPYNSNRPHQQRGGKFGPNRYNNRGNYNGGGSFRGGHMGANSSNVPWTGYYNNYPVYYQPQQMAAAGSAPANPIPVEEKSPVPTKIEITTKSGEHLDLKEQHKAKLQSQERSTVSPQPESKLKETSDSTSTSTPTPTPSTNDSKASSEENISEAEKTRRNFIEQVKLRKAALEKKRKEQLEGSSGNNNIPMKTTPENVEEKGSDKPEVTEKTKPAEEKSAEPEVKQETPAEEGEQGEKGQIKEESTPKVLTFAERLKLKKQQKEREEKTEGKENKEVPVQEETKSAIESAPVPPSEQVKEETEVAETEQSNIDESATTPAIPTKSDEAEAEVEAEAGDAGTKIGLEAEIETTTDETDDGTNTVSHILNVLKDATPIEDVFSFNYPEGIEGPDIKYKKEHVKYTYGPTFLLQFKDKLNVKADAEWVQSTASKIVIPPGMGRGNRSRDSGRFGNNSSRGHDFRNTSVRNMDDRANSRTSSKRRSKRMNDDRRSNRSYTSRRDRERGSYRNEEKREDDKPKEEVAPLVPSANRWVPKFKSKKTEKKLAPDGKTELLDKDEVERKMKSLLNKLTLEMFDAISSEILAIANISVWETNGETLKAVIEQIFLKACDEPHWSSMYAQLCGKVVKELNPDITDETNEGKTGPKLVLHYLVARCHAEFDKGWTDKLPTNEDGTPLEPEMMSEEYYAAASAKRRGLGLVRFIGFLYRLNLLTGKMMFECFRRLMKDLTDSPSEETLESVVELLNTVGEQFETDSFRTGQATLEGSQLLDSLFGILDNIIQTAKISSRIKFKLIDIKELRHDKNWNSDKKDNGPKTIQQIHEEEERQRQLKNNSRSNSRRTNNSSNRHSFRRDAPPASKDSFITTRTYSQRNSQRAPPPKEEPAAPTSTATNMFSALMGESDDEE

Row | Substance | binding
1 | eIF4G1_(1-184) ΔBOX1 (from UniProt P39935) (domain or fragment) | binds weakly
2 | eIF4G1_(1-184) ΔBOX2 (from UniProt P39935) (domain or fragment) | binds

Source: publication doi:10.1101/2020.08.07.234443
